Assay results from the supplement of paper PMC7877785.
± gives the uncertainty stated by the source. The uncertainty is large for many entries.

Assay: self-splicing fitness, log relative to wild type (ln ratio); higher = more splicing; Tetrahymena group I intron in knt gene, E. coli kanamycin selection, DiMSum; sequences stand for … in CUCUCU…GGAGGGAAAAGUUAUCAGGCAUGCACCUGGUAGCUAGUCUUUAAACCAAUAGAUUGCAUCGGUUUAAAAGGCAAGACCGUCAAAUUGCGGGAAAGGGGUCAACAGCCGUUCAGUACCAAGUCUCAGGGGAAACUUUGAGAUGGCCUUGCAAAGGGUAUGGUAAUAAGCUGACGGACAUGGUCCUAACCACGCAGCCAAGUCCUAAGUCAACAGAUCUUCUGUUGAUAUGGAUGCAGUUCACAGACUAAAUGUCGGUCGGGGAAGAUGUAUUCUUCUCAUAAGAUAUAGUCGGACCUCUCCUUAAUGGGAGCUAGCGGAUGAAGUGAUGCAACACUGGAGCCGCUGGGAACUAAUUUGUAUGCGAAAGUAUAUUGAUUAGUUUUGGAGUACUCGUGGUCG
Outline: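 Fitness was computed with DiMSum as the error-weighted combination of replicate fold changes, kanamycin versus none, each normalised to wild type. The library randomised all eight intron nucleotides of the P1ex region, with the intron placed in the knt kanamycin-resistance gene on pET-22b(+) in E. coli BL21(DE3). Six replicate transformations were grown overnight at 37°C or 30°C on LB agar with or without 25 μg/mL kanamycin, plus 100 μg/mL carbenicillin, 50 μM IPTG and 0.2% rhamnose. Pooled colonies were amplicon-sequenced on an Illumina HiSeq 2500.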

Row | Sequence | self-splicing fitness (ln) (30 °C) | self-splicing fitness (ln) (37 °C)
1 | GUAGAGCAAUAUUACGCGGU | -2.88 ± 0.55 | -2.44 ± 0.78
2 | UAGUAGCAAUAUUACGCAAU | -3.44 ± 0.62 | –
3 | CUCGAGCAAUAUUACGCUUU | -4.13 ± 0.46 | -2.31 ± 0.31
4 | GAGAAGCAAUAUUACGGCCC | -0.643 ± 0.56 | -0.392 ± 0.68
5 | CUUGAGCAAUAUUACGACCU | -3.66 ± 1 | -2.69 ± 0.62
6 | UCUGAGCAAUAUUACGCAGA | -2.65 ± 0.52 | -1.91 ± 0.59
7 | UCAAAGCAAUAUUACGCGAC | -3.19 ± 0.53 | -2.79 ± 0.61
8 | UGAGAGCAAUAUUACGACCG | -1.67 ± 0.91 | –
9 | CUUCAGCAAUAUUACGCCAA | -2.09 ± 1 | –
10 | CUGGAGCAAUAUUACGACAC | -3.97 ± 1 | -2.3 ± 1.1
11 | GAGGAGCAAUAUUACGUGGC | – | -3.4 ± 1
12 | AGCGAGCAAUAUUACGCCGC | -3.38 ± 0.5 | -2.59 ± 0.56
13 | GGGAAGCAAUAUUACGUGUA | -1.96 ± 0.14 | -0.669 ± 0.11
14 | AAAGAGCAAUAUUACGGUAA | -1.74 ± 0.3 | -1.67 ± 0.26
15 | GCAGAGCAAUAUUACGCAAA | – | -2.66 ± 0.54
16 | GGAGAGCAAUAUUACGUAUA | – | -2 ± 0.67
17 | CGUGAGCAAUAUUACGAAUU | -4.52 ± 0.51 | –
18 | CUCUAGCAAUAUUACGCCAC | -2.66 ± 0.28 | -3.69 ± 1
19 | UUCUAGCAAUAUUACGCGCC | -3.48 ± 1.1 | –
20 | CAGCAGCAAUAUUACGCCCG | 0.0522 ± 0.12 | 0.33 ± 0.12
21 | UGUGAGCAAUAUUACGUCGC | – | -1.32 ± 0.54
22 | AGUUAGCAAUAUUACGUGGC | -1.99 ± 0.53 | -1.74 ± 0.52
23 | UAGGAGCAAUAUUACGGCAA | -2.2 ± 0.53 | –

Row | Sequence | self-splicing fitness (ln) (30 °C) | self-splicing fitness (ln) (37 °C)
24 | UAUUAGCAAUAUUACGGGGC | -3.78 ± 0.53 | -1.06 ± 0.55
25 | CUGUAGCAAUAUUACGCAAC | -4.16 ± 0.73 | –
26 | UCGUAGCAAUAUUACGGGCC | -3.8 ± 0.77 | –
27 | AGAGAGCAAUAUUACGCGCG | -1.96 ± 0.82 | –
28 | GAAGAGCAAUAUUACGAUUG | -2.53 ± 0.29 | -2.4 ± 0.39
29 | CAGGAGCAAUAUUACGAUGC | -4.21 ± 1 | –
30 | CCUGAGCAAUAUUACGUCCU | – | -2.92 ± 0.61
31 | CCCCAGCAAUAUUACGUCCG | -4.14 ± 0.51 | –
32 | UCGCAGCAAUAUUACGCUCC | – | -1.34 ± 0.52
33 | CCUAAGCAAUAUUACGAGAA | – | -2.76 ± 0.55
34 | AUGGAGCAAUAUUACGUCCA | -0.783 ± 0.45 | -0.778 ± 0.34
35 | UUAGAGCAAUAUUACGCCAC | -2.87 ± 1.1 | -1.57 ± 0.54
36 | GGUGAGCAAUAUUACGCCAA | -1.12 ± 0.54 | -1.73 ± 0.87
37 | CACUAGCAAUAUUACGUGCU | -3.69 ± 0.2 | -2.55 ± 0.15
38 | GCGUAGCAAUAUUACGGCCA | -2.1 ± 0.65 | –
39 | UAAGAGCAAUAUUACGGAAG | – | -2.85 ± 0.61
40 | UCGGAGCAAUAUUACGAGAC | -0.828 ± 0.82 | -1.49 ± 0.71
41 | CUUGAGCAAUAUUACGCACA | – | -2.13 ± 0.56
42 | GGAUAGCAAUAUUACGUUCC | -2.94 ± 0.69 | -0.595 ± 1.4
43 | GCGUAGCAAUAUUACGGCUU | -1.21 ± 0.11 | -0.0921 ± 0.14
44 | GCCGAGCAAUAUUACGAUCU | -2.66 ± 0.69 | –
45 | GGUUAGCAAUAUUACGACUG | -0.729 ± 0.1 | -0.796 ± 0.12
